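Genome-wide siRNA knockdown in TC32 Ewing sarcoma cells, comparing luciferase light from an NR0B1-promoter reporter with a CMV-promoter reporter 48 hours after transfection.
Each siRNA was applied at 20 nM.
A z-score of the log NR0B1-over-CMV signal, less the median of siRNAs with the same seed; more negative means a stronger specific loss of the NR0B1 reporter.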

The strongest results of the screen are mostly left out here.
Sequences are the guide (antisense) strand, without overhang.

Sequence | gene | seed-corrected z-score
UUUGUUGCUUUGUCAUUGC | GTF2B | -0.6189
UAAUGGUAUCUCCAUAUGC | ALCAM | 0.9549
UCAUCUAGUAAUAAGUCUG | PRDX5 | -0.809
UCUCCUUACGCAUGCAUGC | TRIM72 | 0.1093
UCCUUAACCACGAUGUCCG | FBXO6 | -0.1629
UUACAGAAAGUCACCUUCC | ID3 | 1.585
UCAGAUUCUGGGUCCAUCC | PBXIP1 | 0.5505
AAAACUAUUAGUCCCAGUG | COQ2 | 0.3384
AUUAUCUAAAGUGAGAUCC | RSC1A1 | 0.1473
UCAUAUUGAACUAAGCUGG | GABRA4 | -0.01719
AUUGUAAUCACUCUUGUCU | TLE2 | 0.5122
UCUUCUACCUCACUGAAGC | C11orf58 | 0.0003859
UUUGCAAACACCUCCCAGC | NDUFA11 | -0.4259
UGGAUUGUCAGUCCUAGUG | C20orf141 | -1.215
AUUCUUGUAGGAUCUCUGC | TBCA | 1.094
UCCUUUGCGACAAAUAUGC | C4BPB | -0.4272
UUACGAUAAACUGUUCAUG | FMR1 | -0.09741
UCACCUUCAAAUUCGACGG | SULF1 | -0.2575
UUUACACCAAUCAUGAUGG | NUP35 | 0.808
AAUGAUGUAGGGCCUGUAC | LRP5 | -0.2774
UCUGCAAACAGGAUAUAGU | CERCAM | 0.3523
AAUGCACAAAGAUUUGUCC | PES1 | 0.07473
UUAUUUUUGAUCAUGUCCA | COL6A1 | -1.159
AAUGCACCAUCUGUAAAGC | FABP5P10 | 2.143
UCCACCUUGAACUCGUUGC | TMC8 | -0.2417
UUGGUUGUUGGGUCCUUGC | TTC9 | -0.6329
UUACUCAUUAUGGAGGUAC | CCT8 | -0.528
UUGGUUGCGAUGUCCAUGG | MUC20 | -0.8634
UCGUUGUUCUCUGCGAUCU | BIN1 | -1.416
AUUUCACCAACUUUCAUCC | LOC400099 | -0.6943
UAUAUCUACGCAGGUAUAG | EFEMP1 | -0.1084
UCCCUCACCAAUAGCAUCU | MOG | -0.1407
AUGGUACUCAGCAAAACUG | C22orf29 | 0.623
UCUUUAGGAAUGAGAAUAC | EBAG9 | 0.4055
UUUCUUUGCAGCCUGUCCC | AARS2 | 0.5298
UAAGCUGUCAGCAAGUGGU | IDO2 | -0.3435
AUUGUCCACAGAGUAGUCC | FAM188B2 | -0.05366
UUGGCAUGAAUAGCGCACA | HIST1H3E | -0.137
UAUGGAACACCAUCCUUGC | ABLIM3 | -0.1688
UCUGGUAGCAGCUCCAUCA | ADPRH | -0.7704
UCAGAGUCUGGUAAGGUUU | LYG2 | 0.1639
UGUAAAUCUAUUCCUAGUC | VRK2 | 0.2039
AGAUCAAUCACUUGGAUGC | RSPH4A | -0.05531
UAGUAAACAACAUUUGCCC | PON2 | -0.1158
UACUCAAUGCGUACAUUGG | CISH | 0.1834
UGCUAAUAGAUUUUGUUCC | LOC100505841 | -0.5528
ACCCAUCUAAUAACUAUGC | C10orf67 | 0.05458
UAACCGUACAUGUUCCAUC | KLHL2 | -0.2263
UUUCAUUUGCUGUGGCUGC | LOC100533706 | 0.767
UUCAUUCACAUGAAAAUGG | WDR53 | -0.7451
UGAACUUAUACCUAAUUCC | ADAMTS6 | -0.1722
UAUCUAGUUAUAUCCCUCC | ACTR2 | -0.3199
UCUCGGUUGAGUUCCAUCU | LDLRAD4 | 0.5502
UUGUUGUUCCGGCUAAUCC | CDH12 | -0.4551

The last 6 entries again:

{"sequence": "UUUCAUUUGCUGUGGCUGC", "gene": "LOC100533706", "seed-corrected z-score": "0.767"}
{"sequence": "UUCAUUCACAUGAAAAUGG", "gene": "WDR53", "seed-corrected z-score": "-0.7451"}
{"sequence": "UGAACUUAUACCUAAUUCC", "gene": "ADAMTS6", "seed-corrected z-score": "-0.1722"}
{"sequence": "UAUCUAGUUAUAUCCCUCC", "gene": "ACTR2", "seed-corrected z-score": "-0.3199"}
{"sequence": "UCUCGGUUGAGUUCCAUCU", "gene": "LDLRAD4", "seed-corrected z-score": "0.5502"}
{"sequence": "UUGUUGUUCCGGCUAAUCC", "gene": "CDH12", "seed-corrected z-score": "-0.4551"}

The results are deposited in PubChem (AID1159506; NCATS, 2015).